Data as given in paper PMC6265451.

By UniProt entry, the sequences of proteins in these tests, tags left out.
UniProt P29468: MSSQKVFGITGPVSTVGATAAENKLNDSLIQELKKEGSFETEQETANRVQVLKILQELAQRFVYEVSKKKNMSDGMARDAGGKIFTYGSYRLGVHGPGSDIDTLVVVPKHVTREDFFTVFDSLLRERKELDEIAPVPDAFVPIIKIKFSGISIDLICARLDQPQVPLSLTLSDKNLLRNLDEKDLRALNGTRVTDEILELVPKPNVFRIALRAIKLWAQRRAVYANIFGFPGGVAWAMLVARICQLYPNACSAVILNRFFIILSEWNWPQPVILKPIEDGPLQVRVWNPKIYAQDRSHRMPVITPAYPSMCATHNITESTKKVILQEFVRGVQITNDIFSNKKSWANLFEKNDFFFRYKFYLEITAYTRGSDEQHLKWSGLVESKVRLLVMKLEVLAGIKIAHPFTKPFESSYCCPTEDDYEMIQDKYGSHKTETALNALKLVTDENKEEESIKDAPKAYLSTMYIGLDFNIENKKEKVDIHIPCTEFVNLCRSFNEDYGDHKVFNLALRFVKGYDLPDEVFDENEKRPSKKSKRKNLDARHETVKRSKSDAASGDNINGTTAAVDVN
UniProt P53538: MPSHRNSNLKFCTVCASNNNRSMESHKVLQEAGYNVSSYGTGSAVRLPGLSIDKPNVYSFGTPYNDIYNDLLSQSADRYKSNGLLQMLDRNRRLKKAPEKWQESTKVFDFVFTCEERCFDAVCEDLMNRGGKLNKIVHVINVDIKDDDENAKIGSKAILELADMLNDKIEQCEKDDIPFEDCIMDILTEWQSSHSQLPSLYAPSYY
UniProt P32598: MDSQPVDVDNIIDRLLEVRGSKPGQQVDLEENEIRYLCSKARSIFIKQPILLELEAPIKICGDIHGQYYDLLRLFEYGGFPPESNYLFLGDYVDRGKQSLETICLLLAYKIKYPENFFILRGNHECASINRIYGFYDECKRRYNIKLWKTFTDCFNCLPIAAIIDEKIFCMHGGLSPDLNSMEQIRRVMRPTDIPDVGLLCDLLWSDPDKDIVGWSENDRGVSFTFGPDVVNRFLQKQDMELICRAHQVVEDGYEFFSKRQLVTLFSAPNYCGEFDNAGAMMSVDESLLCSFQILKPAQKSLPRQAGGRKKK

T1: Pta1-TAPS (S. cerevisiae) (UniProt Q01329)
T1 sequence: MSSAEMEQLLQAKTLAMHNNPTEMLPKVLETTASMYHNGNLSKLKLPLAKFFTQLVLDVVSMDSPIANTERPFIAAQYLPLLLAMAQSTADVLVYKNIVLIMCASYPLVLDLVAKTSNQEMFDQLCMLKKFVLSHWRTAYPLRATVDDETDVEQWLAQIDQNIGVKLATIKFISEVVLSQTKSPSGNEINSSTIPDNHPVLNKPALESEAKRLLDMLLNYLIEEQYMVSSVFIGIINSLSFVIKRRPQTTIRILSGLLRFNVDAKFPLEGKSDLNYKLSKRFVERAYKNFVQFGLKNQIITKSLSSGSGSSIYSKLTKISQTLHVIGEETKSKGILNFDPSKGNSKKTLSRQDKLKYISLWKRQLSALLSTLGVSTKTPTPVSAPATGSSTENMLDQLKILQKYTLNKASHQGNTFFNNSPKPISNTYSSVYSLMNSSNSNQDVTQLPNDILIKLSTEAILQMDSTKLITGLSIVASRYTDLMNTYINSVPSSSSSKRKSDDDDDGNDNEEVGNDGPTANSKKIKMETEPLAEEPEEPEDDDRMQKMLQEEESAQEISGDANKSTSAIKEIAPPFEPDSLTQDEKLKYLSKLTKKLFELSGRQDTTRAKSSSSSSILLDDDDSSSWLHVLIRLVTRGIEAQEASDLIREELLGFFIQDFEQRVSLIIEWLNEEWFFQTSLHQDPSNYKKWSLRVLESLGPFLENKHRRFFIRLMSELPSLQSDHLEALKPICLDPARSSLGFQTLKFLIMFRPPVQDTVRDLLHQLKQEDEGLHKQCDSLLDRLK

B1: Cft1 (protein, UniProt Q06632 1-1357)
chain: MNVYDDVLDATVVSHSLATHFTTSDYEELLVVRTNILSVYRPTRDGKLYLTDEFKFHGLITDIGLIPQKDSPLSCLLLCTGVAKISILKFNTLTNSIDTLSLHYYEGKFKGKSLVELAKISTLRMDPGSSCALLFNNDIIAFLPFHVNKNDDDEEEEDEDENIDDSELIHSMNQKSQGTNTFNKRKRTKLGDKFTAPSVVLVASELYEGAKNIIDIQFLKNFTKPTIALLYQPKLVWAGNTTISKLPTQYVILTLNIQPAESATKIESTTIAFVKELPWDLHTIVPVSNGAIIVGTNELAFLDNTGVLQSTVLLNSFADKELQKTKIINNSSLEIMFREKNTTSIWIPSSKSKNGGSNNDETLLLMDLKSNIYYIQMEAEGRLLIKFDIFKLPIVNDLLKENSNPKCITRLNATNSNKNMDLFIGFGSGNALVLRLNNLKSTIETREAHNPSSGTNSLMDINDDDDEEMDDLYADEAPENGLTTNDSKGTVETVQPFDIELLSSLRNVGPITSLTVGKVSSIDDVVKGLPNPNKNEYSLVATSGNGSGSHLTVIQTSVQPEIELALKFISITQIWNLKIKGRDRYLITTDSTKSRSDIYESDNNFKLHKGGRLRRDATTVYISMFGEEKRIIQVTTNHLYLYDTHFRRLTTIKFDYEVIHVSVMDPYILVTVSRGDIKIFELEEKNKRKLLKVDLPEILNEMVITSGLILKSNMCNEFLIGLSKSQEEQLLFTFVTADNQIIFFTKDHNDRIFQLNGVDQLNESLYISTYQLGDEIVPDPSIKQVMINKLGHDNKEEYLTILTFGGEIYQYRKLPQRRSRFYRNVTRNDLAITGAPDNAYAKGVSSIERIMHYFPDYNGYSVIFVTGSVPYILIKEDDSTPKIFKFGNIPLVSVTPWSERSVMCVDDIKNARVYTLTTDNMYYGNKLPLKQIKISNVLDDYKTLQKLVYHERAQLFLVSYCKRVPYEALGEDGEKVIGYDENVPHAEGFQSGILLINPKSWKVIDKIDFPKNSVVNEMRSSMIQINSKTKRKREYIIAGVANATTEDTPPTGAFHIYDVIEVVPEPGKPDTNYKLKEIFQEEVSGTVSTVCEVSGRFMISQSQKVLVRDIQEDNSVIPVAFLDIPVFVTDSKSFGNLLIIGDAMQGFQFIGFDAEPYRMISLGRSMSKFQTMSLEFLVNGGDMYFAATDADRNVHVLKYAPDEPNSLSGQRLVHCSSFTLHSTNSCMMLLPRNEEFGSPQVPSFQNVGGQVDGSVFKIVPLSEEKYRRLYVIQQQIIDRELQLGGLNPRMERLANDFYQMGHSMRPMLDFNVIRRFCGLAIDRRKSIAQKAGRHAHFEAWRDIINIEFSMRSLCQGK
B2: Pti1 (protein, UniProt P39927 1-425)
chain: MTDPRRRTGRHFLTPENLSSTLQITNLPPEWNQDIITSVVAGSGPVIDIKAKNDPRTGKLTGVLFDYLTSKDCKRAWEILNRIENFPVKIEQIIPPNYKDHLRETANKNSQKQVLQLNRDSYPFEAGLELPFEMVTEVPIPRRPPPPQAANNTNSVSNNTNIQFPDILSKASKHLPSFQDGSIIAPDKISQNLSKIPPLQLIEIISNLKILSNQENIQKSQLESFLDTNSDITISVTQALLEMGFIDYSVVTKVLKSQVGEAPSLLSSNNTSNSNTPVSVIRNNTPLHVPSNEVSNNPNNMPLNVAMPMPMSTPPFIPLPLQQQPFGFAPPGPFMPPAQGPSMGQPVLANQLGQVQQQNISSTEGPSNANKANDSGTINMAKLQLLPENQQDMIKQVLTLTPAQIQSLPSDQQLMVENFRKEYII
B3: Swd2 (protein, UniProt P36104 1-329)
chain: MTTVSINKPNLLKFKHVKSFQPQEKDCGPVTSLNFDDNGQFLLTSSSNDTMQLYSATNCKFLDTIASKKYGCHSAIFTHAQNECIYSSTMKNFDIKYLNLETNQYLRYFSGHGALVNDLKMNPVNDTFLSSSYDESVRLWDLKISKPQVIIPSLVPNCIAYDPSGLVFALGNPENFEIGLYNLKKIQEGPFLIIKINDATFSQWNKLEFSNNGKYLLVGSSIGKHLIFDAFTGQQLFELIGTRAFPMREFLDSGSACFTPDGEFVLGTDYDGRIAIWNHSDSISNKVLRPQGFIPCVSHETCPRSIAFNPKYSMFVTADETVDFYVYDE
B4: Syc1 (protein, UniProt Q08553 1-188)
chain: MDLPKDKSDRTHQRINLNNSGTDRTNDLYLHIVQTFGCIETTATENATKLLMLGDVEVEISASSVSIEWTQKSMISQTIADSIVIMIIGLCASDKNVLSESELKERNHNVWKIQELQNLFREQFGDSFSIDEGIGKKENVKNGSVTIGKSKATIDFSTMKLIDCNSNPLKGRVESILSIGQKLTTPLC
B5: Cft2 (protein, UniProt Q12102 1-859)
chain: MTYKYNCCDDGSGTTVGSVVRFDNVTLLIDPGWNPSKVSYEQCIKYWEKVIPEIDVIILSQPTIECLGAHSLLYYNFTSHFISRIQVYATLPVINLGRVSTIDSYASAGVIGPYDTNKLDLEDIEISFDHIVPLKYSQLVDLRSRYDGLTLLAYNAGVCPGGSIWCISTYSEKLVYAKRWNHTRDNILNAASILDATGKPLSTLMRPSAIITTLDRFGSSQPFKKRSKIFKDTLKKGLSSDGSVIIPVDMSGKFLDLFTQVHELLFESTKINAHTQVPVLILSYARGRTLTYAKSMLEWLSPSLLKTWENRNNTSPFEIGSRIKIIAPNELSKYPGSKICFVSEVGALINEVIIKVGNSEKTTLILTKPSFECASSLDKILEIVEQDERNWKTFPEDGKSFLCDNYISIDTIKEEPLSKEETEAFKVQLKEKKRDRNKKILLVKRESKKLANGNAIIDDTNGERAMRNQDILVENVNGVPPIDHIMGGDEDDDEEEENDNLLNLLKDNSEKSAAKKNTEVPVDIIIQPSAASKHKMFPFNPAKIKKDDYGTVVDFTMFLPDDSDNVNQNSRKRPLKDGAKTTSPVNEEDNKNEEEDGYNMSDPISKRSKHRASRYSGFSGTGEAENFDNLDYLKIDKTLSKRTISTVNVQLKCSVVILNLQSLVDQRSASIIWPSLKSRKIVLSAPKQIQNEEITAKLIKKNIEVVNMPLNKIVEFSTTIKTLDISIDSNLDNLLKWQRISDSYTVATVVGRLVKESLPQVNNHQKTASRSKLVLKPLHGSSRSHKTGALSIGDVRLAQLKKLLTEKNYIAEFKGEGTLVINEKVAVRKINDAETIIDGTPSELFDTVKKLVTDMLAKI
B6: Ysh1 (enzyme, UniProt Q06224 1-779)
chain: MERTNTTTFKFFSLGGSNEVGRSCHILQYKGKTVMLDAGIHPAYQGLASLPFYDEFDLSKVDILLISHFHLDHAASLPYVMQRTNFQGRVFMTHPTKAIYRWLLRDFVRVTSIGSSSSSMGTKDEGLFSDEDLVDSFDKIETVDYHSTVDVNGIKFTAFHAGHVLGAAMFQIEIAGLRVLFTGDYSREVDRHLNSAEVPPLSSNVLIVESTFGTATHEPRLNRERKLTQLIHSTVMRGGRVLLPVFALGRAQEIMLILDEYWSQHADELGGGQVPIFYASNLAKKCMSVFQTYVNMMNDDIRKKFRDSQTNPFIFKNISYLRNLEDFQDFGPSVMLASPGMLQSGLSRDLLERWCPEDKNLVLITGYSIEGTMAKFIMLEPDTIPSINNPEITIPRRCQVEEISFAAHVDFQENLEFIEKISAPNIILVHGEANPMGRLKSALLSNFASLKGTDNEVHVFNPRNCVEVDLEFQGVKVAKAVGNIVNEIYKEENVEIKEEIAAKIEPIKEENEDNLDSQAEKGLVDEEEHKDIVVSGILVSDDKNFELDFLSLSDLREHHPDLSTTILRERQSVRVNCKKELIYWHILQMFGEAEVLQDDDRVTNQEPKVKEESKDNLTNTGKLILQIMGDIKLTIVNTLAVVEWTQDLMNDTVADSIIAILMNVDSAPASVKLSSHSCDDHDHNNVQSNAQGKIDEVERVKQISRLFKEQFGDCFTLFLNKDEYASNKEETITGVVTIGKSTAKIDFNNMKILECNSNPLKGRVESLLNIGGNLVTPLC
B7: Mpe1 (protein, UniProt P35728 1-441)
chain: MSSTIFYRFKSQRNTSRILFDGTGLTVFDLKREIIQENKLGDGTDFQLKIYNPDTEEEYDDDAFVIPRSTSVIVKRSPAIKSFSVHSRLKGNVGAAALGNATRYVTGRPRVLQKRQHTATTTANVSGTTEEERIASMFATQENQWEQTQEEMSAATPVFFKSQTNKNSAQENEGPPPPGYMCYRCGGRDHWIKNCPTNSDPNFEGKRIRRTTGIPKKFLKSIEIDPETMTPEEMAQRKIMITDEGKFVVQVEDKQSWEDYQRKRENRQIDGDETIWRKGHFKDLPDDLKCPLTGGLLRQPVKTSKCCNIDFSKEALENALVESDFVCPNCETRDILLDSLVPDQDKEKEVETFLKKQEELHGSSKDGNQPETKKMKLMDPTGTAGLNNNTSLPTSVNNGGTPVPPVPLPFGIPPFPMFPMPFMPPTATITNPHQADASPKK
B8: Pfs2 (protein, UniProt P42841 1-465)
chain: MDGHNQNQYQNQNQIQQSQQPPLKKYVTQRRSVDVSSPYINLYYNRRHGLPNLVVEPETSYTIDIMPPNAYRGRDRVINLPSKFTHLSSNKVKHVIPAIQWTPEGRRLVVATYSGEFSLWNASSFTFETLMQAHDSAVTTMKYSHDSDWMISGDADGMIKIWQPNFSMVKEIDAAHTESIRDMAFSSNDSKFVTCSDDNILKIWNFSNGKQERVLSGHHWDVKSCDWHPEMGLIASASKDNLVKLWDPRSGNCISSILKFKHTVLKTRFQPTKGNLLMAISKDKSCRVFDIRYSMKELMCVRDETDYMTLEWHPINESMFTLACYDGSLKHFDLLQNLNEPILTIPYAHDKCITSLSYNPVGHIFATAAKDRTIRFWTRARPIDPNAYDDPTYNNKKINGWFFGINNDINAVREKSEFGAAPPPPATLEPHALPNMNGFINKKPRQEIPGIDSNIKSSTLPGLSI
B9: Yth1 (protein, UniProt Q06102 1-208)
chain: MSLIHPDTAKYPFKFEPFLRQEYSFSLDPDRPICEFYNSREGPKSCPRGPLCPKKHVLPIFQNKIVCRHWLRGLCKKNDQCEYLHEYNLRKMPECVFFSKNGYCTQSPDCQYLHIDPASKIPKCENYEMGFCPLGSSCPRRHIKKVFCQRYMTGFCPLGKDECDMEHPQFIIPDEGSKLRIKRDDEINTRKMDEEKERRLNAIINGEV

The molecules below were run against T1, Pta1-TAPS (S. cerevisiae) (assay: affinity purification with mass spectrometry; TAPS tandem affinity purification from tagged yeast: IgG sepharose, TEV protease elution, Streptactin resin, desthiobiotin elution; SDS-PAGE stained with SYPRO Ruby, excised bands identified by tryptic-digest mass spectrometry).

binding, binds:
Pap1 (from UniProt P29468 1-568) (enzyme)
Ssu72 (from UniProt P53538 1-206) (enzyme)
Glc7 (from UniProt P32598 1-312) (enzyme)
B1
B2
B3
B4
B5
B6
B7
B8
B9

These are yes or no findings as the source states them, for the method shown. Binding seen in cells or lysates may run through a third protein. Here binding means that the protein was enriched with, or labelled near, the bait; the list need not be complete.
